This is an account of results in article PMC5874046.

The chains behind the UniProt entries cited, without tags or fusion partners. Where a name states a change or a piece, a line headed by the entry shows the natural chain unless it says otherwise.
UniProt P29341, whole entry: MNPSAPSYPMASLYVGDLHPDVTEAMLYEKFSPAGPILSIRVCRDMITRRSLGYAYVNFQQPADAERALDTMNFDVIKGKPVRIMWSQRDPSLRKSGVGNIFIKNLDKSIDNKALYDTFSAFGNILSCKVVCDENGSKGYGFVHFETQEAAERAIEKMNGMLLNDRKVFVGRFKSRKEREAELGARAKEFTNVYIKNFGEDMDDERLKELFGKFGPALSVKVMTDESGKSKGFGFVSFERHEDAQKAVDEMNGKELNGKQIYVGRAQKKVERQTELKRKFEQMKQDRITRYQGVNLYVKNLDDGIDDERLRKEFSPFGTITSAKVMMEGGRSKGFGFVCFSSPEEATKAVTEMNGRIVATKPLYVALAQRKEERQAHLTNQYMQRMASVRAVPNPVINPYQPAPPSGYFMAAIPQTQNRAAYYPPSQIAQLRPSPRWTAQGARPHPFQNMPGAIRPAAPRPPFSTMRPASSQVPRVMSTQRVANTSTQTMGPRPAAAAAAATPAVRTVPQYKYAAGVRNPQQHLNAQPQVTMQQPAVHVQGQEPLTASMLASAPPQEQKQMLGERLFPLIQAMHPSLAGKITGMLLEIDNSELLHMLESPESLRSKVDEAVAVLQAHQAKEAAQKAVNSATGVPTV
UniProt Q61701: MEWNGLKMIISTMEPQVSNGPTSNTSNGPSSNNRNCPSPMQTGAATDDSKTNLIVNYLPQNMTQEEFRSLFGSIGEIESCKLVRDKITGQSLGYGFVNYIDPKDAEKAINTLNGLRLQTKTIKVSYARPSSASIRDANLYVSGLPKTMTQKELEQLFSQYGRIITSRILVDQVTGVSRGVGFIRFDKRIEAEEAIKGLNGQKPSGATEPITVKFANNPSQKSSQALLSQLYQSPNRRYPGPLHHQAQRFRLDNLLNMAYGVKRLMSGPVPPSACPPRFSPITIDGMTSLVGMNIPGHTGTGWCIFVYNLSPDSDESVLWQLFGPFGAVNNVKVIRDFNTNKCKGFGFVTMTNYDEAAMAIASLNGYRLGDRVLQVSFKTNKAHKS

For at least one entry, the source does not settle the construct or the ends of the probe. For part of these data: No signal at the amounts used counts as a negative. For part of these data: The comparison behind a weaker result is the experiment's own reference, which may not be listed here. For part of these data: Where cells or extracts were used, other partners may take part.

Data set [1] deals with His-PABP. Description: competition with a labelled probe. The settings on record: competitor against labeled Ins2L, EMSA: 6% native PAGE, 0.5x TBE, 4°C (binding buffer as in cited work), recombinant protein, protein details: His, letters put together from the description. On the technique in general: A gel shift assay detects complexes by their altered migration in electrophoresis.

The test system of data set [2] is His-PABP. Description: EMSA. The settings on record: EMSA: 6% native PAGE, 0.5x TBE, 4°C (binding buffer as in cited work); recombinant protein; protein details: His; label: radiolabel (probe), unlabeled competitor; letters put together from the description.
Data set [3] has as its target endogenous PABP (mouse (βTC6 or MIN6 extract)) (UniProt P29341). Description: competition with a labelled probe. Particulars: 10-fold excess competitor in biotin-L pull-down, EMSA: 6% native PAGE, 0.5x TBE, 4°C (binding buffer as in cited work), protein in an extract, letters put together from the description.
Data set [4] concerns the target endogenous HuD (mouse (βTC6 or MIN6 extract)) (UniProt Q61701). Description: pull-down. Particulars: not significantly affected by L or S competitor; biotin pull-down: 5 mM Tris pH 7.5, 15 mM KCl, 5 mM MgCl2, 0.25 mM DTT, 10% glycerol, 20 U RNasin, 4°C 2 h; protein in an extract; letters put together from the description.
Data set [5] concerns the target endogenous PABP (mouse (βTC6 or MIN6 extract)) (UniProt P29341). Description: pull-down. The settings on record: biotin pull-down: 5 mM Tris pH 7.5, 15 mM KCl, 5 mM MgCl2, 0.25 mM DTT, 10% glycerol, 20 U RNasin, 4°C 2 h; protein in an extract; letters put together from the description.
The mark [6] stands for this setting: label: radiolabel (probe), unlabeled competitor.

GGGAGCAAGCAGGAAGCCUAUCUUC [L3]: in the data set with His-PABP [1] (label: unlabeled competitor), the binding result is reported as “no binding”.

Take GGGAGCCCUAAGUGAUCCGCUACAA [L1]: the binding result in the data set on His-PABP [1] (label: unlabeled competitor) is “no binding”. Consider “GGGAGCCCUAAGUGAUCCGCUACAAUCAAAAACCAUCAGCAAGCAGGAAGCCUAUCUUCCAGGUUAUUGUUUCAAC [Ins2L 5'UTR (L)]”, for which the binding result (with His-PABP [2]; in data set [3] (setting [6])) was “binds” each time.

Take “GGGAGCCCUAAGUGAUCCGCUACAAUCAAAAACCAUCAGCAAGCAGGAAGCCUAUCUUCCAGGUUAUUGUUUCAAC [biotin-Ins2L 5'UTR]”: the binding result in data set [4] and in data set [5] was “binds” in each case.

With “GGGAGCCCUAAGUGAUCCGCUACAAUCAAAAACCAUCAGCAAGCAGGAAGGUUAUUGUUUCAAC [Ins2S 5'UTR (S)]”, the binding result (in the data set with His-PABP [1] (label: unlabeled competitor); in data set [3] (label: unlabeled competitor)) was “binds more weakly” throughout. “GGGAGCCCUAAGUGAUCCGCUACAAUCAAAAACCAUCAGCAAGCAGGAAGGUUAUUGUUUCAAC [biotin-Ins2S 5'UTR]”: the binding result in data set [5] is on record as “binds more weakly”.

GGGUACAAUCAAAAACCAUCAGCAA [L2]: the binding result with His-PABP [2] and in the data set on His-PABP [1] (setting [6]) was “binds” each time.

For the sequence GGGUCUUCCAGGUUAUUGUUUCAAC [L4], in the data set on His-PABP [1] (label: unlabeled competitor), the binding result is “no binding”.
